In patent US20130142717A1, “OFFSHORE GAS SEPARATION PROCESS” (priority 2011, published 2013):

Assay: Absorption tests of H2S/CO2 on aqueous absorbent solutions, with desorption and reabsorption
Details: for Loading (%) = Moles of H2S / Moles of Compound / Selectivity = (H2S/CO2) in solution / (H2S/CO2) in feed gas: 35° C., […] aqueous solution, nitrogen:carbon dioxide:hydrogen sulfide 89:10:1, 2 hours; for Capacity (%): absorption 35° C., desorption 85° C. in flowing nitrogen for 2 hours; for Selectivity-Reabsorption: selectivity after regeneration (desorption 85° C., flowing nitrogen, 2 hours)

| Molecule | Loading (%) = Moles of H2S / Moles of Compound | Capacity (%) | Selectivity = (H2S/CO2) in solution / (H2S/CO2) in feed gas | Selectivity-Reabsorption |
| --- | --- | --- | --- | --- |
| COCCOCCOCCNC(C)(C)C [B, Methoxyethoxyethoxyethanol-tert-butylamine] | 24.2% | 98.4% | – | – |
| CCOCCOCCNC(C)(C)C [EEETB, Ethoxyethoxyethanol-tert-butylamine] | 13.1% | 89.3% | 75.4 | 86.7 |
| Ethoxyethanol-tert-butylamine (tert-butylamino-ethoxy-ethanol) | 16.3% | 60% | – | – |
| CC(C)(C)NCCOCCNC(C)(C)C [Bis-SE, Bis-(t-butylaminoethyl)ether, reference compound] | 28.2% | 80% | 16.7 | 25.2 |
| CC(C)(C)NCCNC(C)(C)C [TBA-NH—(CH2)2—HN-TBA, reference compound] | 9.8% | 46% | 26.2 | 20.2 |
| CCCCOCCOCCNC(C)(C)C [BEETB, Butoxyethoxyethanol-tert-butylamine] | 16.8% | 92.5% | 90.2 | 197.6 |
| COCCOCCNC(C)(C)C [MEETB, Methoxyethoxyethanol-tert-butylamine] | 21.57% | 67.4% | 56.01 | 59.6 |
